No constants are given. Whether binding was seen depends on the method and setting. In cells and extracts the contact can be indirect. Some results given as binding are weak or reduced against the parent protein; the word gives no strength.

Chains of the proteins cited; added tags and fusions are not shown.
UniProt Q9JJ66: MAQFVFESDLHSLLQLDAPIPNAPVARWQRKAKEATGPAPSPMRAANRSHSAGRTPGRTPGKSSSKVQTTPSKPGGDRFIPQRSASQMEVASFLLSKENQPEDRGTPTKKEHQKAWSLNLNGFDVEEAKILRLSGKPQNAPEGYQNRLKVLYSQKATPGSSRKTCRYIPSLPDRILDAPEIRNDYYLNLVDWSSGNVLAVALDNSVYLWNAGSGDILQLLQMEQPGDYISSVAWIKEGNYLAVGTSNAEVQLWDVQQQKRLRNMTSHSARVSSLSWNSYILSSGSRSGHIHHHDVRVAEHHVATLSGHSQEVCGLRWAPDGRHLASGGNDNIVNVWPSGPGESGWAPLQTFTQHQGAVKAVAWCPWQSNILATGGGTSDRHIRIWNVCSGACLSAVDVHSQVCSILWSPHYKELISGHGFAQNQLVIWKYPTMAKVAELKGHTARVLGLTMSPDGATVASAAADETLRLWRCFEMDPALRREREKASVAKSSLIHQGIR
UniProt E9Q8Q6: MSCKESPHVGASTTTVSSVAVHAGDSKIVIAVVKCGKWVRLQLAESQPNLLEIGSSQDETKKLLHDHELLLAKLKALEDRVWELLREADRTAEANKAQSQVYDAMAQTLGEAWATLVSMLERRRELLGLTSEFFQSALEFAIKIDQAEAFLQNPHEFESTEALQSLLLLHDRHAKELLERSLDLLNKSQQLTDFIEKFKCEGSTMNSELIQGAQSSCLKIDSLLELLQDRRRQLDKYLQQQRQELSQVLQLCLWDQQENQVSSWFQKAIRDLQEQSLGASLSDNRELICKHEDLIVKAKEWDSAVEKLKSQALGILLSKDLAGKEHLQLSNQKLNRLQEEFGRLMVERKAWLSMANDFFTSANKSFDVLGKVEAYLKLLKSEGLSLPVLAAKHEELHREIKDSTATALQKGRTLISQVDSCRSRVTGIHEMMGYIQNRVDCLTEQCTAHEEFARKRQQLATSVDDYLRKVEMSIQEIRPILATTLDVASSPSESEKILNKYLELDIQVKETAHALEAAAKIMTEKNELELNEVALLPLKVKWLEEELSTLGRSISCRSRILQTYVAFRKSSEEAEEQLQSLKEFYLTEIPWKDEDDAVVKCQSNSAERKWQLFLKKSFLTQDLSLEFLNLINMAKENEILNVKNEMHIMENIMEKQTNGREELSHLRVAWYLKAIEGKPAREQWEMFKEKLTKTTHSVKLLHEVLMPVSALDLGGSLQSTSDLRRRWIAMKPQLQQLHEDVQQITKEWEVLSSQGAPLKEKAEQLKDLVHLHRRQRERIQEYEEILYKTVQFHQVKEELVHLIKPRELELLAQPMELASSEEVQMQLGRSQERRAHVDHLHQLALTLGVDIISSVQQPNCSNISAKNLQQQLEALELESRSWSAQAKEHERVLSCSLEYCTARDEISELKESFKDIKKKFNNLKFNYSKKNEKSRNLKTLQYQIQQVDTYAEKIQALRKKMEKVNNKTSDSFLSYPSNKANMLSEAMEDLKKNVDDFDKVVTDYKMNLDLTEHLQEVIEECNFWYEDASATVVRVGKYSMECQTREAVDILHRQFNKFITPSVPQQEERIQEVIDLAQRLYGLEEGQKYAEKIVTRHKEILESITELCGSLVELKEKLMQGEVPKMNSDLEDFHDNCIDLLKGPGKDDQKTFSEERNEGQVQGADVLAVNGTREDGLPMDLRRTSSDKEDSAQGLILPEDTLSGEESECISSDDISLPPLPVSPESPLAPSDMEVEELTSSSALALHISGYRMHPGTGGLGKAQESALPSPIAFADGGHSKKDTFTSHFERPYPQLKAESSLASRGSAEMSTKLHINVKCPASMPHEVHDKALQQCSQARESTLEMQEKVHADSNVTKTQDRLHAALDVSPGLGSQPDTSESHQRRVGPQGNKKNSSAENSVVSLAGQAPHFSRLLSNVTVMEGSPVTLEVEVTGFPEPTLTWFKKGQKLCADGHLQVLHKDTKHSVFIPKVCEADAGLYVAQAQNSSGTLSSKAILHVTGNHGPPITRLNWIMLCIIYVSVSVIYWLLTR
UniProt Q12834: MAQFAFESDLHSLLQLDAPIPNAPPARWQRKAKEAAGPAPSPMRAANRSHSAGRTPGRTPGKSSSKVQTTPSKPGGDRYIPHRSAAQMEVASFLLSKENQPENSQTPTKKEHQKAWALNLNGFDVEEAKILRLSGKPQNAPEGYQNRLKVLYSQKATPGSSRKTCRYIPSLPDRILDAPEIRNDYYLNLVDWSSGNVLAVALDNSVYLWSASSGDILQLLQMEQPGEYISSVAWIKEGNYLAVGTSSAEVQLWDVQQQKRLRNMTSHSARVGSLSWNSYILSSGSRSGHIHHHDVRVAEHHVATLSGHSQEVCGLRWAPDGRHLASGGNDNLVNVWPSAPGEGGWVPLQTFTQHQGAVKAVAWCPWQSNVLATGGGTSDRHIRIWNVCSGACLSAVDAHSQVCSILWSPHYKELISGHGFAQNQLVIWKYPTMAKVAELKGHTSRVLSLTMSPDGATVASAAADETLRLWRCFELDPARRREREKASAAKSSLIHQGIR

Experiment [1] concerns the target EGFP-Cdc20 (cell division cycle protein 20) (UniProt Q9JJ66). Kind of experiment: co-IP; HeLa cells cotransfected with FLAG-CAMDI and EGFP-Cdc20; lysate in Nonidet P-40 lysis buffer (20 mM Tris HCl pH 7.2, 2 mM EDTA, 0.5% NP-40, 8% sucrose, 80 mM DTT); immunoprecipitation with anti-FLAG (Fig. 4A) or anti-EGFP (Fig. 4B) antibody, immunoblot. Background: In western blotting, separated proteins are transferred to a membrane and probed.

Experiment [2] addresses FLAG-CAMDI (coiled-coil protein associated with MRLC IIa and DISC1), mouse full-length (mouse) (UniProt E9Q8Q6). Briefly: co-IP; HeLa cells transfected with FLAG-CAMDI alone; immunoprecipitation and immunoblot for endogenous partners (Fig. 4C, 4E); Nonidet P-40 lysis buffer.
Experiment [3] shares this target. Briefly: co-IP; HeLa cells cotransfected with FLAG-CAMDI and EGFP-Cdc20; lysate in Nonidet P-40 lysis buffer (20 mM Tris HCl pH 7.2, 2 mM EDTA, 0.5% NP-40, 8% sucrose, 80 mM DTT); immunoprecipitation with anti-FLAG (Fig. 4A) or anti-EGFP (Fig. 4B) antibody, immunoblot.
Experiment [4] addresses endogenous CAMDI (cortical neurons) (mouse (endogenous in cortical neurons)) (UniProt E9Q8Q6). Kind of experiment: co-IP; endogenous proteins in cortical neurons (Fig. S7); details not shown.

On to “FLAG-CAMDI (coiled-coil protein associated with MRLC IIa and DISC1), mouse full-length (from UniProt E9Q8Q6 1-1531)”, for which the binding result in experiment [1] is “binds”. In the case of “endogenous Cdc20 (HeLa) (from UniProt Q12834 1-499)”, the binding entry in experiment [2] is reported as “binds”. With “EGFP-Cdc20 (cell division cycle protein 20) (from UniProt Q9JJ66 1-499)”, in experiment [3], the binding entry is reported as “binds”.

For “endogenous Cdc20 (cortical neurons) (from UniProt Q9JJ66 1-499)”, the binding result in experiment [4] was “binds”.

These data come from paper PMC8353494.
